From PMC5454536 come the findings set out here.

For this experiment, the target named is T1, signal recognition particle (SRP): SRP protein Ffh with the 4.5S SRP RNA (E. coli) (UniProt P0AGD7).
T1 sequence: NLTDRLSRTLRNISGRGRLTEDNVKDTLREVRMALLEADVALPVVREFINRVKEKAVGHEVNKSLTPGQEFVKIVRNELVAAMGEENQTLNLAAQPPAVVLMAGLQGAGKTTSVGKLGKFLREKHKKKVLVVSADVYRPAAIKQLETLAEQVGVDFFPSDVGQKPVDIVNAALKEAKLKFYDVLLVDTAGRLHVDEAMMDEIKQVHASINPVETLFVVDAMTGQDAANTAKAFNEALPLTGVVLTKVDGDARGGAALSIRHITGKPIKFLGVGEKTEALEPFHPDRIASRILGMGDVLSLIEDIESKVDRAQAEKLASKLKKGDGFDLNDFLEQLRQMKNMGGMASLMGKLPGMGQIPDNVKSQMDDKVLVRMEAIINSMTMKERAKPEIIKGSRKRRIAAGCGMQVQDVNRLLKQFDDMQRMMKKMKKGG
As to the kind of experiment: cryo-EM structure; RNC_(1A9L)-85 or -135 (250 nM) with SRP, SR and SecYEG, GDP:AlFx, Buffer C (50 mM HEPES-KOH, 85 mM KOAc, 15 mM Mg(OAc)2, 0.02% DDM, 5 mM spermidine, 0.5 mM spermine); both purified.

These are yes or no findings as the source states them, for the method shown. Some entries that bind do so weakly or less than the wild type.

B1: SRP receptor (SR), FtsY (receptor, UniProt P10121 1-497)
chain: MAKEKKRGFFSWLGFGQKEQTPEKETEVQNEQPVVEEIVQAQEPVKASEQAVEEQPQAHTEAEAETFAADVVEVTEQVAESEKAQPEAEVVAQPEPVVEETPEPVAIEREELPLPEDVNAEAVSPEEWQAEAETVEIVEAAEEEAAKEEITDEELETALAAEAAEEAVMVVPPAEEEQPVEEIAQEQEKPTKEGFFARLKRSLLKTKENLGSGFISLFRGKKIDDDLFEELEEQLLIADVGVETTRKIITNLTEGASRKQLRDAEALYGLLKEEMGEILAKVDEPLNVEGKAPFVILMVGVNGVGKTTTIGKLARQFEQQGKSVMLAAGDTFRAAAVEQLQVWGQRNNIPVIAQHTGADSASVIFDAIQAAKARNIDVLIADTAGRLQNKSHLMEELKKIVRVMKKLDVEAPHEVMLTIDASTGQNAVSQAKLFHEAVGLTGITLTKLDGTAKGGVIFSVADQFGIPIRYIGVGERIEDLRPFKADDFIEALFARED
With B1, the binding entry is reported as “binds”.
